The assay addresses HA-tagged Robo expressed pan-neuronally in Drosophila embryos (Drosophila). In words: co-IP; lysates of 0- to 15-hour Drosophila embryos pan-neuronally expressing Myc-tagged Comm and HA-tagged Robo or Robo^SD; lysis buffer 50 mM Tris-HCl pH 7.5, 150 mM NaCl, 1% NP40, 0.5% sodium deoxycholate; protein A-agarose, 4°C; text: IP anti-myc, blot anti-HA; legend: IP anti-HA, blot anti-Myc.

Results are given in words; binding and its absence hold for the method and conditions named. Binding seen in cells or lysates may run through a third protein. Binding calls can cover weak binding; strength is not graded here. Tags and fused reporters may be left off the sequences shown.

B1: Myc-tagged Comm expressed pan-neuronally in Drosophila embryos (protein, UniProt Q24139 1-370)
chain: MISTTDYPTVETTTTAEELYAEYISAPASSMSPAAIAEHLQQNQITFEIPSAHDLRHIDALNSFNALLQRIGNAAVSYDPAPPSGWSPDGSISTEQLSKSVVLDLADLRDRSEESGESSWWSQIFGDADMHVIINYLWIGVVSSLVILSLVFILFSCYFYRKFRTWKKCNKDIRAQIHAASDSYSSHLVGCDASRLLLHQQMQHPHHRSSEAGFYQIESPPCYTIATGLPSYDEALHHQPRHFAYGMKFVYPSLAAVHHHHHCISNWEKQEPLNKLQKCKLSAAAAVEEDKADSSSSTSASASPSSSESSNLATATPAICINMPSGRQDEEVDNSDSDSAIAVAVAVAQSLQPAAPADDDCASLVVVVAA
Take B1: the binding entry is “binds”.

Values taken from article PMC2583054.
